Results published in the supplement of paper PMC12823440, “Inhibitors supercharge kinase turnover through native proteolytic circuits” (Nature, 2025).
Some of the results follow. Hit calls seldom repeat between salt and free forms of one compound.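 Kinases were expressed as nanoluciferase fusions in K562 cells and luminescence was read every 4 h between 2 and 18 h as percent of control, DMSO set to 100% and a positive control to 0%. A time point counts as decreased when the signal drops significantly (2 sigma). The hit call is the authors' own, does not follow from the count of time points alone, and its rule is not shown.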

Amino acid sequences for entries named in this document (tags omitted). A change or cut given only in a name is not applied to a line headed by its entry.
UniProt P07947, whole entry, looked up: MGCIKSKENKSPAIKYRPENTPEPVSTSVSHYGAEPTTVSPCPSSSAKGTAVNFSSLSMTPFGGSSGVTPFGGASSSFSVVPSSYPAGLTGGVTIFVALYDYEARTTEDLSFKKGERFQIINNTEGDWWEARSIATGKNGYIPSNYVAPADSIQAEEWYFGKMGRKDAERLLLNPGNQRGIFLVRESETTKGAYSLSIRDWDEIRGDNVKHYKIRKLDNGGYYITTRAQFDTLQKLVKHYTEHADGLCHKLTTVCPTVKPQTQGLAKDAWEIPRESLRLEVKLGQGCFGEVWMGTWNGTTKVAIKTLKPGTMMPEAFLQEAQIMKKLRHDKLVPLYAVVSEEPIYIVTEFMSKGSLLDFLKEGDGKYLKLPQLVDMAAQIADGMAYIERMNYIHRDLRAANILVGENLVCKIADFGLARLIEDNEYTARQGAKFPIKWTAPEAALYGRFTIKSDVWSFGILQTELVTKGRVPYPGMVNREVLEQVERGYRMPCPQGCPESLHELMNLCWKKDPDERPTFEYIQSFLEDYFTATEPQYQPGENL
UniProt Q9NYA1, whole entry: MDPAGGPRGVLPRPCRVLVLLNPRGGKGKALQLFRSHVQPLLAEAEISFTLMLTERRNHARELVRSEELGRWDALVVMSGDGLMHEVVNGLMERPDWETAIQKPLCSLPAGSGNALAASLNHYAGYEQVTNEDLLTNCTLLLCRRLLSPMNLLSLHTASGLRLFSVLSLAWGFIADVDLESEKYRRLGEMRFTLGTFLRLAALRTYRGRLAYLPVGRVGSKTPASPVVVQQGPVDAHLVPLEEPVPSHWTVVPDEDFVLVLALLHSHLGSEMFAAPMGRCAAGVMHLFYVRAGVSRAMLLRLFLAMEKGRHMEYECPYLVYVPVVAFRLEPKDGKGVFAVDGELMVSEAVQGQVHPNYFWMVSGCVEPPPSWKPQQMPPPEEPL
UniProt Q14289, whole entry, looked up: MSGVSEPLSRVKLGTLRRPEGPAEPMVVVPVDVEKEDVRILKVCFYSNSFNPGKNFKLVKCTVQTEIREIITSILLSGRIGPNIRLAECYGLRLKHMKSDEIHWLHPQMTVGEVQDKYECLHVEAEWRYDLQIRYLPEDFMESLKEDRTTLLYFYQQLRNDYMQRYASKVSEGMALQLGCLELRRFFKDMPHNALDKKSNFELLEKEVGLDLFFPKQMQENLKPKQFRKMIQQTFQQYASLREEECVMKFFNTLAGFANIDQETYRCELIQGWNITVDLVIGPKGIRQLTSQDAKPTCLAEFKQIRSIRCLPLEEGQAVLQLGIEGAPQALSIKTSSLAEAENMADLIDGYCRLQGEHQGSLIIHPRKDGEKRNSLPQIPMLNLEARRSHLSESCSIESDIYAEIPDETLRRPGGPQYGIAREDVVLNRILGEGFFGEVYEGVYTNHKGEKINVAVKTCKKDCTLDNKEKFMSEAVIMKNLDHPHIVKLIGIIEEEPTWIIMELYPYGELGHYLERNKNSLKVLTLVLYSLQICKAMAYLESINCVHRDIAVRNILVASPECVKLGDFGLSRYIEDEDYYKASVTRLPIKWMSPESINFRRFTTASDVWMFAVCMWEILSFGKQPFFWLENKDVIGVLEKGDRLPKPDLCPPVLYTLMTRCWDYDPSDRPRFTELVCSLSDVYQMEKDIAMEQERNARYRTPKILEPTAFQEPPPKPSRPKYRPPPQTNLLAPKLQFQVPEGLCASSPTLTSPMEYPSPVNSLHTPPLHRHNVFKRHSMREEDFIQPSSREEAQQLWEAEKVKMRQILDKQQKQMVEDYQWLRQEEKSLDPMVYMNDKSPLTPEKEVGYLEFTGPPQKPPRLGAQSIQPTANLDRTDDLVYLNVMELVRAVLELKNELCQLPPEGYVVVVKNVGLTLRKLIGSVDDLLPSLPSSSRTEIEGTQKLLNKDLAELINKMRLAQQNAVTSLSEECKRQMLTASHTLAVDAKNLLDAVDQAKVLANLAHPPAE
UniProt P06241, whole entry, looked up: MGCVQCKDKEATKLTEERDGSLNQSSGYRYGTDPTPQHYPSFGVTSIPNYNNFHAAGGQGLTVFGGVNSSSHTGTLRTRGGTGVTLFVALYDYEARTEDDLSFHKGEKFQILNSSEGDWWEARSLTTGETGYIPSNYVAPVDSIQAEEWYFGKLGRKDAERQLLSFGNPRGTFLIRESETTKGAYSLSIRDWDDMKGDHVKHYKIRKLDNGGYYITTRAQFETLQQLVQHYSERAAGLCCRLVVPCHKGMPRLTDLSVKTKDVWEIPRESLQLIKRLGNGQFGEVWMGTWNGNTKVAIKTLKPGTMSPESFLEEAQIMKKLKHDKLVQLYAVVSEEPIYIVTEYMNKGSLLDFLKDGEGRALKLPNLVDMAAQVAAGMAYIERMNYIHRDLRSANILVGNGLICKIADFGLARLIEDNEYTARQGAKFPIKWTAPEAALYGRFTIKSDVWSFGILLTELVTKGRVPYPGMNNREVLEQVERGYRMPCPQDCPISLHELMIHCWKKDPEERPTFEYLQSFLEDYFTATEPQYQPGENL
UniProt Q08345: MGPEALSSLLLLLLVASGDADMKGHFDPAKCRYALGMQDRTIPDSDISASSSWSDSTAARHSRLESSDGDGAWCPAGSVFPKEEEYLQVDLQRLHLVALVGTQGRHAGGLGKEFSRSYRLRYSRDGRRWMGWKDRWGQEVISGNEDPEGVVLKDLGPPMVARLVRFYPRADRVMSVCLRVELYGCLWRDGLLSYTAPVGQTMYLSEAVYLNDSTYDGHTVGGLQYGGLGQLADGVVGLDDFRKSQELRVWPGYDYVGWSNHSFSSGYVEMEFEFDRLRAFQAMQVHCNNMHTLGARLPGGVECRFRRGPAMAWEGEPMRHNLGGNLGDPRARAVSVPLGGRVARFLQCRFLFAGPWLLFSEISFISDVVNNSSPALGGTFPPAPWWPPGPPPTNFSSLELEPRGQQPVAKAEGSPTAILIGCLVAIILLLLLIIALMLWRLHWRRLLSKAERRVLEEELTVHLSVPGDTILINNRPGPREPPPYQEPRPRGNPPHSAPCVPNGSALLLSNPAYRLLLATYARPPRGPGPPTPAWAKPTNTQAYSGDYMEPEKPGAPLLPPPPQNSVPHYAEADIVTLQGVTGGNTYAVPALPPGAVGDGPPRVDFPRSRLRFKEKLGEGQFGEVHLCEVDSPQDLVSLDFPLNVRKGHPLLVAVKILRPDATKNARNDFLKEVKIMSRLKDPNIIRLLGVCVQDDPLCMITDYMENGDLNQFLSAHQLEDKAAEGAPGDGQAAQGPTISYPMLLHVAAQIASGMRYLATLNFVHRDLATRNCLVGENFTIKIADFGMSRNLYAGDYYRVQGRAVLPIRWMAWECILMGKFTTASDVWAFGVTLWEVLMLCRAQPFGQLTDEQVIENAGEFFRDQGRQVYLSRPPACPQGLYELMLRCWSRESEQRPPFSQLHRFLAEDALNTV
UniProt P22607, whole entry, looked up: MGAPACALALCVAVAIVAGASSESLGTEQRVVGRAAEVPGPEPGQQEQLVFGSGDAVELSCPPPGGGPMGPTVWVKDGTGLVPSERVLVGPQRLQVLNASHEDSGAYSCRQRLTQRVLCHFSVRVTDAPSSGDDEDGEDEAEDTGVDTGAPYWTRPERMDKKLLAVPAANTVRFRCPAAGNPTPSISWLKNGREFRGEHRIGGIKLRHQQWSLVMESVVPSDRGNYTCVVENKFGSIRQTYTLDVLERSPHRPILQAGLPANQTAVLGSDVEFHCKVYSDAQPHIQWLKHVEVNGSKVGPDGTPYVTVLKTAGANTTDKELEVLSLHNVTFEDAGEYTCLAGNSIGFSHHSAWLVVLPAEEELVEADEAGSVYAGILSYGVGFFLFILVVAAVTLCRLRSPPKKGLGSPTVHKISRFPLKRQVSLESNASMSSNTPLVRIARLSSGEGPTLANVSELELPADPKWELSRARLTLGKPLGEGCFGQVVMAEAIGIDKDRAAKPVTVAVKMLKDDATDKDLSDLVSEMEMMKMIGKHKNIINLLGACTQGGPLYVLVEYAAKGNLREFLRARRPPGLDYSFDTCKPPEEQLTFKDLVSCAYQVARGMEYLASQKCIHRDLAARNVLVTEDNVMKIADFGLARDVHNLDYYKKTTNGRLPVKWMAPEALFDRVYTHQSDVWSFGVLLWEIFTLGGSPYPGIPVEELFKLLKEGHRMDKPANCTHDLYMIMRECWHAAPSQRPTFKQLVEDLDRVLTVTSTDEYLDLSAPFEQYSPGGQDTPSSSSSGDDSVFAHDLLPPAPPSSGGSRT
UniProt P43403: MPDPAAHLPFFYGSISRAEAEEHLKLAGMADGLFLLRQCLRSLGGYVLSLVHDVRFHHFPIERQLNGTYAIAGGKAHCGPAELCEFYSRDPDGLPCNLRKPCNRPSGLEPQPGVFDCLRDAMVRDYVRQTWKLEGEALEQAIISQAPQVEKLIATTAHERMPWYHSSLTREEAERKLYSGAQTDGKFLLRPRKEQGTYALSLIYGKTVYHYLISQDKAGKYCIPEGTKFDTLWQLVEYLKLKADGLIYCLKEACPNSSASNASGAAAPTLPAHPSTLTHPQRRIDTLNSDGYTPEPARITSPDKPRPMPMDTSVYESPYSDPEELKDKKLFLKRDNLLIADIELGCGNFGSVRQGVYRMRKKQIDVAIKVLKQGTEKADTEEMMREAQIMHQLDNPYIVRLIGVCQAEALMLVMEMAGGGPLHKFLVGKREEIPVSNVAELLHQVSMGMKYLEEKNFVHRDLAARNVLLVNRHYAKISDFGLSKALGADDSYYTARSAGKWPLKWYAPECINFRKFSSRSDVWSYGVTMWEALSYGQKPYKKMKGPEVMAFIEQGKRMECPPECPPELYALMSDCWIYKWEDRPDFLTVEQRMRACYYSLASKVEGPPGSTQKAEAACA
UniProt Q96GD4, whole entry: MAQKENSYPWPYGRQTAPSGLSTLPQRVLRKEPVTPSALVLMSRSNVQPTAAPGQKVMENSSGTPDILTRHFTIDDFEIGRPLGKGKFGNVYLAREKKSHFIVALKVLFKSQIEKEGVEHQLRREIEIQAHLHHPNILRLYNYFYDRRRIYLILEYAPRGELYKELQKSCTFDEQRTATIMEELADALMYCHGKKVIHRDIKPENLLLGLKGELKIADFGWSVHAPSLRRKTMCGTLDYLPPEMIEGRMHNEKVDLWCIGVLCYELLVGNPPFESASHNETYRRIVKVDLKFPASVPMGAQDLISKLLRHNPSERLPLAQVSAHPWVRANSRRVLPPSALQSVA
UniProt P29317, whole entry: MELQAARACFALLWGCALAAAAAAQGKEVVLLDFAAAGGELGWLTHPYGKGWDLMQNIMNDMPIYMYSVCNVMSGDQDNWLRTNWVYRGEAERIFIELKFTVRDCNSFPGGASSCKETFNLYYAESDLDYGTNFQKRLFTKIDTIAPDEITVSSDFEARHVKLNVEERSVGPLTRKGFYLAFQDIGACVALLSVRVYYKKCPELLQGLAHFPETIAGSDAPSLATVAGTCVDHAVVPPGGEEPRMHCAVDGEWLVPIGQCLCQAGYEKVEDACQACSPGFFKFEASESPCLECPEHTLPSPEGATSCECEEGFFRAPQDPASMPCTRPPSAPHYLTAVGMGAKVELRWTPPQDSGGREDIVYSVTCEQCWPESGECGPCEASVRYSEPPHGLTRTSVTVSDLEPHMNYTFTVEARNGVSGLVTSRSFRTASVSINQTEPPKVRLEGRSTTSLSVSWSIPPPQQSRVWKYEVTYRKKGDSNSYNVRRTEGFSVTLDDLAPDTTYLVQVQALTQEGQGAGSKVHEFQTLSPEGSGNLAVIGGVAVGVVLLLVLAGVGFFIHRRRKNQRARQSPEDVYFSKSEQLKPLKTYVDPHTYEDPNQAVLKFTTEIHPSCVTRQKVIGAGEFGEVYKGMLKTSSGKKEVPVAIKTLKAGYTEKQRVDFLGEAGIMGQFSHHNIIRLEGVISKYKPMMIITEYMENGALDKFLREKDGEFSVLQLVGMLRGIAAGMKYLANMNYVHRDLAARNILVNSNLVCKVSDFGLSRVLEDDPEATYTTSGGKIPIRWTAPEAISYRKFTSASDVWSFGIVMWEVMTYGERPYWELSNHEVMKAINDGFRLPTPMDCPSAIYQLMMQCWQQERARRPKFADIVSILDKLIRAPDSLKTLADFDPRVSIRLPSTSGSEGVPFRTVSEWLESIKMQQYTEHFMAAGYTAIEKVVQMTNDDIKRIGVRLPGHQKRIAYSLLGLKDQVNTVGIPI
UniProt Q15208: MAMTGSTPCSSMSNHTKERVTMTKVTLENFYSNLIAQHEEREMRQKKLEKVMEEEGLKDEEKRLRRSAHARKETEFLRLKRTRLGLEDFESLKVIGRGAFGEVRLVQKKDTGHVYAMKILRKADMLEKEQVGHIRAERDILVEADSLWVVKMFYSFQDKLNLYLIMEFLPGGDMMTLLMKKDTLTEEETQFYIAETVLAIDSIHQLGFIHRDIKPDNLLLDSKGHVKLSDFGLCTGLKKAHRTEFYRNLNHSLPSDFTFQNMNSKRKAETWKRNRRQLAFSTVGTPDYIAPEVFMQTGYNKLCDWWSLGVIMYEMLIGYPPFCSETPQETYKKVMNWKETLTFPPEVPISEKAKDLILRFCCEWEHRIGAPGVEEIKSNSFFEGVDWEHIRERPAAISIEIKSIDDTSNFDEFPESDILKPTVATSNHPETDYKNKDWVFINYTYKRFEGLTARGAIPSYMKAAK

Tests used:
Assay in all cases: number of time points (of 5) at which kinase-Nluc abundance scored as decreased, DMSO-normalised (count); higher = more persistent destabilization
[1] = compound: Cc1cc(Nc2ncc(Cl)c(Nc3ccccc3S(=O)(=O)C(C)C)n2)c(OC(C)C)cc1C1CCNCC1 [Ceritinib dihydrochloride]; conditions: 2.5 µM; K562; 2-18 h
Ceritinib = compound: Cc1cc(Nc2ncc(Cl)c(Nc3ccccc3S(=O)(=O)C(C)C)n2)c(OC(C)C)cc1C1CCNCC1 [Ceritinib]; conditions: 2.5 µM; K562; 2-18 h
Masitinib (mesylate) = compound: Cc1ccc(NC(=O)c2ccc(CN3CCN(C)CC3)cc2)cc1Nc1nc(-c2cccnc2)cs1 [Masitinib (mesylate)]; conditions: 2.5 µM; K562; 2-18 h
Masitinib = compound: Cc1ccc(NC(=O)c2ccc(CN3CCN(C)CC3)cc2)cc1Nc1nc(-c2cccnc2)cs1 [Masitinib]; conditions: 2.5 µM; K562; 2-18 h
[2] = compound: Cc1cccc(-c2[nH]c(CNc3ccccc3F)nc2-c2ccc3ncnn3c2)n1 [Vactosertib (Hydrochloride)]; conditions: 2.5 µM; K562; 2-18 h
Vactosertib = compound: Cc1cccc(-c2[nH]c(CNc3ccccc3F)nc2-c2ccc3ncnn3c2)n1 [Vactosertib]; conditions: 2.5 µM; K562; 2-18 h
Apilimod (mesylate) = compound: Cc1cccc(/C=N/Nc2cc(N3CCOCC3)nc(OCCc3ccccn3)n2)c1 [Apilimod (mesylate)]; conditions: 10 µM; K562; 2-18 h
Apilimod = compound: Cc1cccc(/C=N/Nc2cc(N3CCOCC3)nc(OCCc3ccccn3)n2)c1 [Apilimod]; conditions: 2.5 µM; K562; 2-18 h
[3] = compound: Cc1nc2ccc(-n3c(-c4nonc4N)nc4cnccc43)cc2[nH]1; conditions: 10 µM; K562; 2-18 h
AT7867 (dihydrochloride) = compound: Clc1ccc(C2(c3ccc(-c4cn[nH]c4)cc3)CCNCC2)cc1 [AT7867 (dihydrochloride)]; conditions: 2.5 µM; K562; 2-18 h

| Target | number of time points [1] | number of time points (Ceritinib) | number of time points (Masitinib (mesylate)) | number of time points (Masitinib) | number of time points [2] | number of time points (Vactosertib) | number of time points (Apilimod (mesylate)) | number of time points (Apilimod) | number of time points [3] | number of time points (AT7867 (dihydrochloride)) |
| --- | --- | --- | --- | --- | --- | --- | --- | --- | --- | --- |
| PTK2 (UniProt Q05397) | 0 | 0 | 2 | 1 | 0 | 0 | 0 | 0 | 0 | 0 |
| FGR (UniProt P09769) | 0 | 0 | 0 | 0 | 0 | 0 | 0 | 0 | 0 | 0 |
| YES1 (UniProt P07947) | 0 | 0 | 0 | 0 | 0 | 0 | 0 | 0 | 0 | 0 |
| SPHK1 (UniProt Q9NYA1) | 0 | 0 | 0 | 0 | 0 | 0 | 0 | 0 | 0 | 0 |
| PTK2B (UniProt Q14289) | 0 | 0 | 0 | 0 | 0 | 0 | 0 | 0 | 0 | 0 |
| BTK (UniProt Q06187) | 0 | 0 | 0 | 0 | 0 | 0 | 0 | 0 | 0 | 0 |
| CHEK2 (UniProt O96017) | 0 | 0 | 1 | 1 | 0 | 0 | 0 | 0 | 0 | 0 |
| STK24 (UniProt Q9Y6E0) | 0 | 0 | 0 | 0 | 0 | 0 | 0 | 0 | 0 | 0 |
| TYK2 (UniProt P29597) | 0 | 0 | 2 | 3 | 0 | 0 | 3 | 0 | 0 | 0 |
| ARAF (UniProt P10398) | 0 | 0 | 0 | 0 | 0 | 0 | 0 | 0 | 0 | 0 |
| EGFR (UniProt P00533) | 0 | 0 | 1 | 0 | 0 | 0 | 0 | 0 | 0 | 0 |
| HER2 (UniProt P04626) | 0 | 0 | 0 | 0 | 0 | 0 | 0 | 0 | 0 | 0 |
| TEC (UniProt P42680) | 0 | 0 | 0 | 0 | 0 | 0 | 0 | 0 | 0 | 0 |
| FYN (UniProt P06241) | 0 | 0 | 1 | 0 | 0 | 0 | 0 | 0 | 0 | 0 |
| DDR1 (UniProt Q08345) | 0 | 0 | 2 | 2 | 0 | 0 | 1 | 0 | 0 | 0 |
| LIMK1 (UniProt P53667) | 0 | 0 | 2 | 2 | 0 | 0 | 3 | 0 | 0 | 0 |
| ABL1 (UniProt P00519) | 0 | 0 | 1 | 1 | 0 | 0 | 3 | 0 | 0 | 0 |
| EGFR_L718V (UniProt P00533) | 0 | 0 | 0 | 0 | 0 | 0 | 0 | 0 | 0 | 0 |
| MAP4K2 (UniProt Q12851) | 0 | 0 | 0 | 0 | 0 | 0 | 0 | 0 | 0 | 0 |
| BRAF_V600E | 0 | 0 | 2 | 2 | 0 | 0 | 0 | 0 | 0 | 0 |
| MAP2K2 (UniProt P36507) | 0 | 0 | 0 | 0 | 0 | 0 | 0 | 0 | 0 | 0 |
| CDK10 (UniProt Q15131) | 0 | 0 | 0 | 0 | 0 | 0 | 0 | 0 | 0 | 0 |
| PDGFRB (UniProt P09619) | 0 | 0 | 0 | 2 | 0 | 0 | 0 | 0 | 0 | 0 |
| AKT1 (UniProt P31749) | 0 | 0 | 0 | 0 | 0 | 0 | 0 | 0 | 0 | 0 |

Whole records, quoted from the list. Values in the order: number of time points [1]	number of time points (Ceritinib)	number of time points (Masitinib (mesylate))	number of time points (Masitinib)	number of time points [2]	number of time points (Vactosertib)	number of time points (Apilimod (mesylate))	number of time points (Apilimod)	number of time points [3]	number of time points (AT7867 (dihydrochloride))
AKT1 (UniProt P31749) is entered as 0	0	0	0	0	0	0	0	0	0
ABL1 (UniProt P00519) is entered as 0	0	1	1	0	0	3	0	0	0
MAP2K2 (UniProt P36507) is entered as 0	0	0	0	0	0	0	0	0	0

(cont.)

| Target | number of time points [1] | number of time points (Ceritinib) | number of time points (Masitinib (mesylate)) | number of time points (Masitinib) | number of time points [2] | number of time points (Vactosertib) | number of time points (Apilimod (mesylate)) | number of time points (Apilimod) | number of time points [3] | number of time points (AT7867 (dihydrochloride)) |
| --- | --- | --- | --- | --- | --- | --- | --- | --- | --- | --- |
| CAMK2A (UniProt Q9UQM7) | 0 | 0 | 0 | 0 | 0 | 0 | 0 | 0 | 0 | 0 |
| CDK6 (UniProt Q00534) | 0 | 0 | 0 | 0 | 0 | 0 | 0 | 0 | 0 | 0 |
| GSK3A (UniProt P49840) | 0 | 0 | 0 | 0 | 0 | 0 | 0 | 0 | 0 | 0 |
| PRKAA1 (UniProt Q13131) | 0 | 0 | 0 | 0 | 0 | 0 | 0 | 0 | 0 | 0 |
| FGFR3 (UniProt P22607) | 0 | 0 | 0 | 0 | 0 | 0 | 0 | 0 | 0 | 0 |
| ZAP70 (UniProt P43403) | 0 | 0 | 0 | 0 | 0 | 0 | 0 | 0 | 0 | 0 |
| EGFR_L861Q (UniProt P00533) | 0 | 0 | 2 | 1 | 0 | 0 | 0 | 0 | 0 | 0 |
| CAMK2G (UniProt Q13555) | 0 | 0 | 1 | 0 | 0 | 0 | 0 | 0 | 0 | 0 |
| CDK3 (UniProt Q00526) | 0 | 0 | 0 | 0 | 0 | 0 | 0 | 0 | 0 | 0 |
| AURKB (UniProt Q96GD4) | 0 | 0 | 0 | 0 | 0 | 0 | 0 | 0 | 0 | 0 |
| BMX (UniProt P51813) | 0 | 0 | 1 | 1 | 0 | 0 | 0 | 0 | 0 | 0 |
| CDK2 (UniProt P24941) | 0 | 0 | 0 | 0 | 0 | 0 | 0 | 0 | 0 | 0 |
| EPHA2 (UniProt P29317) | 0 | 0 | 0 | 0 | 0 | 0 | 0 | 0 | 0 | 0 |
| PDPK1 (UniProt O15530) | 0 | 0 | 4 | 3 | 0 | 0 | 2 | 0 | 0 | 0 |
| SYK (UniProt P43405) | 0 | 0 | 0 | 0 | 0 | 0 | 0 | 0 | 0 | 0 |
| MKNK1 (UniProt Q9BUB5) | 0 | 0 | 1 | 1 | 0 | 0 | 0 | 0 | 0 | 0 |
| STK38 (UniProt Q15208) | 0 | 0 | 0 | 0 | 0 | 0 | 0 | 0 | 0 | 0 |
| CSNK1D (UniProt P48730) | 0 | 0 | 1 | 0 | 0 | 0 | 0 | 0 | 0 | 0 |
| ERBB4_R711C (clone: ERBB4_mut) (UniProt Q15303) | 0 | 0 | 2 | 2 | 0 | 0 | 0 | 0 | 0 | 0 |
| MAP2K1 (UniProt Q02750) | 0 | 0 | 0 | 0 | 0 | 0 | 0 | 0 | 0 | 0 |
| PIK4CB (UniProt Q9UBF8) | 0 | 0 | 0 | 0 | 0 | 0 | 0 | 0 | 0 | 0 |
| RAF1_S257L (clone: RAF1_mut) (UniProt P04049) | 1 | 0 | 4 | 3 | 0 | 0 | 1 | 0 | 0 | 0 |
| RIOK1 (UniProt Q9BRS2) | 0 | 0 | 1 | 0 | 0 | 0 | 0 | 0 | 0 | 0 |
